Reference: patent US20070208043A1, “Use of Serum Amyloid A Gene in Diagnosis and Treatment of Glaucoma and Identification of Anti-Glaucoma Agents” (ALCON, INC., priority 2003, published 2007)

Test system: SAA induced IL-8 secretion in TM cells
Assay: Inhibition of SAA induced IL-8 secretion in TM cells (IL-8 in media by ELISA)
Assay type: cell-based
Procedure: FIG. 11. Effect of MAP p38 kinase inhibitors on induction of IL-8 by SAA treatment (1 μg/ml) in TM cells. […] IL-8 was measured in the media by ELISA.
FIG. 12. […] NTM650-03, p9 or HL-60 cells were treated in serum-free DMEM for 4 hours with 1 μg/ml SAA and the indicated concentrations of SB202580. IL-8 was measured in the media by ELISA.
One pathway for upregulation of IL-8 is through activation of MAP kinases.

Question: `CC(C)OC(=O)C(C)(C)Oc1ccc(C(=O)c2ccc(Cl)cc2)cc1` [Fenofibrate] was tested. Which inhibition at 1 µM (1 μM) did it give?
Answer: Its inhibition at 1 µM is 59.9%.

Question: And the inhibition at 10 µM (10 μM)?
Answer: Its inhibition at 10 µM is 52.7%.

Question: And the inhibition at 50 µM (50 μM)?
Answer: The inhibition at 50 µM was 57.2%.
